Source: patent US20240109941A1 (University of California, published 2024)
“Also recorded” adds a separate entry of the source. Read-outs that look alike come from different tables or passages of the source.

Conditions: native PAGE

Molecule | polymer (hexamer) formation in native gel (listed as MaSSAMP-helix2) | polymer (hexamer) formation in native gel (listed as MaSSAMP)
SHVEYANLFLANLEKVLVIDYK [CghSAMPa helix 2, polypeptide containing CghSAMPa helix 2] | polymers (again, likely hexamers based on the molecular weight) were detected; also recorded: formed hexamers in the native gel | 
CghSAMPa (full length stable antimicrobial peptide) (In the native gel it ran as polymers, 'likely hexamers based on the molecular weight'; also called MaSSAMP; Syd72SSAMP1) MCCNRGKNVSIENLHQGFTHIFESTFESTEGVAEYVSHPSHVEYANLFLANLEKVLVIDYKPTTVRV |  | polymers (likely hexamers based on the molecular weight) were detected in a native gel; also recorded: formed hexamers in the native gel
